Data taken from paper doi:10.1101/156513.
Read-outs that look alike come from different tables or passages of the source. No constants are given. Whether binding was seen depends on the method and setting. Binding seen in cells or lysates may run through a third protein. Some entries that bind do so weakly or less than the wild type.

Sequences of proteins named here, by UniProt entry; tags and fusion partners are left off. A line that says so, or that is headed by a name, gives the form on record, which may keep a tag or linker. Residues count along the entry.
GFP-tagged ZPSG region of ZO-1 (ZPSG-1, residues 417-806) (Q07157, residues 417-806): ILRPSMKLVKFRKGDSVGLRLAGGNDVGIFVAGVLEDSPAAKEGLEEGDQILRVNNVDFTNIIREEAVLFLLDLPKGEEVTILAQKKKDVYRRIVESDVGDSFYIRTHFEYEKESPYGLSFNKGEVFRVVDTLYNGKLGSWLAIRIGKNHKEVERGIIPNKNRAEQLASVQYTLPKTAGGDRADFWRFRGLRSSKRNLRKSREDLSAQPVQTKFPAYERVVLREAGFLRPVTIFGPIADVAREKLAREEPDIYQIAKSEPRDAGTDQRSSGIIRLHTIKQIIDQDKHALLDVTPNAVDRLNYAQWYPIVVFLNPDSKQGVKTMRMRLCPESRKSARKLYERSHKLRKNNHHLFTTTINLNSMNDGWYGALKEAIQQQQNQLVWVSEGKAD
GFP-tagged C-terminal ZO-1 fragment (GFP-ZO-1-1619-1748) (Q07157, residues 1619-1748): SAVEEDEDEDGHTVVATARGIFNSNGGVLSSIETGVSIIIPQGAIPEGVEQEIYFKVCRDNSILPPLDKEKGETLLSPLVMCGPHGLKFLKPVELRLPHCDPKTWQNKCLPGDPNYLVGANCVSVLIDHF
UniProt P16989: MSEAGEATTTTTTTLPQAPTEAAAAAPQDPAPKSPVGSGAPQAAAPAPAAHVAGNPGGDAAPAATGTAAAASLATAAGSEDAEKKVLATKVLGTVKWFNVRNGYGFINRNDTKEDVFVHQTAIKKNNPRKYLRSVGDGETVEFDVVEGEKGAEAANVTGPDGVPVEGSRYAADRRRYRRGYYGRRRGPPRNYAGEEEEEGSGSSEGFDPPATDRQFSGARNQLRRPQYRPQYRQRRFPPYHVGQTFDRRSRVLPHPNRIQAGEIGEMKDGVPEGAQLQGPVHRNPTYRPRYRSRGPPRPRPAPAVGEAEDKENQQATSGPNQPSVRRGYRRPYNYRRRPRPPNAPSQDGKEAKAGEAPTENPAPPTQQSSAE
GFP-tagged ZPSG region of ZO-2 (ZPSG-2, 509-880) (Q9UDY2, residues 509-880): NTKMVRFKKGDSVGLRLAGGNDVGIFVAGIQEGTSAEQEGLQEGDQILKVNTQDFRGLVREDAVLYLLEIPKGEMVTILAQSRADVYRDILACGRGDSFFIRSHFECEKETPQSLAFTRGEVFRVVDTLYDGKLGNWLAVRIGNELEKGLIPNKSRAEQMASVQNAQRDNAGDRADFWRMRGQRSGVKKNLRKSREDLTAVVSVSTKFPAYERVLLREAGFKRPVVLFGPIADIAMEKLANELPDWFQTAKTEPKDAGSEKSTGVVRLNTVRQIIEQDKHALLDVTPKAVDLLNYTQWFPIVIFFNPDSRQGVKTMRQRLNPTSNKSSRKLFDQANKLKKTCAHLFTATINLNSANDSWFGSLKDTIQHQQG
GST fused to the C-terminal fragment of ZO-2 (890-1190) (Q9UDY2, residues 890-1190): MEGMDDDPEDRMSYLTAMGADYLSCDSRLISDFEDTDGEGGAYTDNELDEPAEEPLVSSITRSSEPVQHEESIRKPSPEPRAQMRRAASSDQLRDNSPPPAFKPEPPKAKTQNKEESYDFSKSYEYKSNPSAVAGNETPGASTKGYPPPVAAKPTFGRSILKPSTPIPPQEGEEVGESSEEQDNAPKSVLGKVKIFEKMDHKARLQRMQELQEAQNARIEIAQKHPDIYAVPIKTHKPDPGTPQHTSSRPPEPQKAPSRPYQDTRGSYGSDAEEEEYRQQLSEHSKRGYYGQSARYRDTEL
UniProt Q61146, residues 406-521: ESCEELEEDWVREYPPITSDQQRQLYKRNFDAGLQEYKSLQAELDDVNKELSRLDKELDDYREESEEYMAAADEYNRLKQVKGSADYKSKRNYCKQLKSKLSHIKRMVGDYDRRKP

Key:
Experiment in all cases: pull-down
GST-ZPSG-1 [1] = molecular target: GST-ZPSG-1 (UniProt Q07157)
GST-ZPSG-1 [2] = molecular target: GST-ZPSG-1 (UniProt Q07157); remark: listed apart in the source
GST-DbpA = GST-DbpA (UniProt P16989)
[3] = molecular target: GST fused to the C-terminal fragment of ZO-2 (890-1190) (UniProt Q9UDY2)
[4] = molecular target: GST fused to the C-terminal fragment of ZO-2 (890-1190) (UniProt Q9UDY2); remark: listed apart in the source

In the case of “GFP-tagged C-terminal ZO-1 fragment (GFP-ZO-1-1619-1748) (from UniProt Q07157 1619-1748) (domain or fragment)”, the binding (GST-ZPSG-1 [1]) is reported as “binds”.

For “HA-tagged C-terminal occludin (residues 406-521) (from UniProt Q61146 406-521) (domain or fragment)”, the binding (GST-ZPSG-1 [2]) was “binds”.

In the case of “GFP-tagged ZPSG region of ZO-1 (ZPSG-1, residues 417-806) (from UniProt Q07157 417-806) (domain or fragment)”, the binding (GST-DbpA) is reported as “binds”.

For “GFP-tagged ZPSG region of ZO-2 (ZPSG-2, 509-880) (from UniProt Q9UDY2 509-880) (domain or fragment)”, the binding [3] was “binds”, the binding (GST-DbpA) was “binds” and the binding [4] was “binds”.
